This experiment has as its target Myc-SIRT3. Put plainly: co-IP; Flag-tagged TLR9 and its fragments coexpressed in 293 cells with Myc-Sirt3; anti-Myc immunoprecipitates analysed by anti-Flag immunoblotting.

The values below come from PMC7693736.

These are yes or no findings as the source states them, for the method shown. In cells and extracts the contact can be indirect. A result given as binding can be weak or reduced; the word gives no strength. Tags and fused reporters may be left off the sequences shown.

B1: Flag-tagged TLR9 with only TIR domain (TIR) (domain or fragment, UniProt Q9NR96 868-1013)
chain: LPYDAFVVFDKTQSAVADWVYNELRGQLEECRGRWALRLCLEERDWLPGKTLFENLWASVYGSRKTLFVLAHTDRVSGLLRASFLLAQQRLLEDRKDVVVLVILSPDGRRSRYVRLRQRLCRQSVLLWPHQPSGQRSFWAQLGMAL
For B1, the binding result is listed as “binds”.
